Measured values published in paper PMC5072841, “Insights into HIV-1 proviral transcription from integrative structure and dynamics of the Tat:AFF4:P-TEFb:TAR complex” (eLife, 2016).
Results are given in words; binding and its absence hold for the method and conditions named. Some binding calls cover weakened binding; strength is not graded here.

The chains behind the UniProt entries cited, without tags or fusion partners. Residues count along the entry.
UniProt O60563, residues 1-264: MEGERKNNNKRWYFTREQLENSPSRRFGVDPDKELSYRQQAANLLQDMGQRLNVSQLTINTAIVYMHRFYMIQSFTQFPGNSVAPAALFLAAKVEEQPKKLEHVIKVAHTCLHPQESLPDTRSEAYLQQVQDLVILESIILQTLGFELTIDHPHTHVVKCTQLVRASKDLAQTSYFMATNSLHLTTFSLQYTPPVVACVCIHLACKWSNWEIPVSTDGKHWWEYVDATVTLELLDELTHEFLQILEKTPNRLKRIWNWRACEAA
UniProt P04608, residues 1-57: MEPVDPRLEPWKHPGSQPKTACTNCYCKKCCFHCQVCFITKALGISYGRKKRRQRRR

Columns and labels:
[1] = target: human cyclin T1 1-264 (human) (UniProt O60563); experiment: crystal structure; Tat_(1-57):AFF4_(32-67):P-TEFb combined with TAR21 RNA (nucleotides 21-41) at 1:1.3; sitting drops at 18°C; 5.9 Å; molecular replacement with PDB 4OGR; both purified
[2] = target: Tat:P-TEFb complex (HIV-1 Tat 1-57, human CDK9 1-330, human cyclin T1 1-264) (HIV-1 | human) (UniProt P04608); experiment: as above
[3] = target: HIV-1 Tat 1-57 (HIV-1) (UniProt P04608); experiment: as above
[4] = target: Tat:P-TEFb complex (HIV-1 Tat 1-57, human CDK9 1-330, human cyclin T1 1-264) (HIV-1 | human) (UniProt P04608); experiment: SEC; Tat-P-TEFb and AFF4 combined at 1:1.4 (mol/mol), analytical Superdex S200, 25 mM Na-HEPES pH 7.4, 0.2 M NaCl, 1 mM DTT; both purified

“HIV-1 Tat 1-57 (from UniProt P04608 1-57) (domain or fragment)” was tested, and the binding [1] was “binds”.

For SPLFAEPYKVTSKEDKLSSRIQSMLGNYDEMKDFIG (peptide, UniProt Q9UHB7 32-67, acetylated and amidated termini) [AFF4 peptide 32-67], the binding [2] was “binds” and the binding [3] was “binds”.

B1: AFF4 fragment 2-73 (domain or fragment, UniProt Q9UHB7 2-73)
chain: NREDRNVLRMKERERRNQEIQQGEDAFPPSSPLFAEPYKVTSKEDKLSSRIQSMLGNYDEMKDFIGDRSIPK
In the case of B1, the binding [4] is reported as “binds”.
